Source: patent publication US20140314789A1
No constants are given. Whether binding was seen depends on the method and setting. In cells and extracts the contact can be indirect. Some entries that bind do so weakly or less than the wild type. For some of these results: Where a sequence is shown, tags or fusion partners need not be part of it.

Chains of the proteins cited; added tags and fusions are not shown.
UniProt P11881: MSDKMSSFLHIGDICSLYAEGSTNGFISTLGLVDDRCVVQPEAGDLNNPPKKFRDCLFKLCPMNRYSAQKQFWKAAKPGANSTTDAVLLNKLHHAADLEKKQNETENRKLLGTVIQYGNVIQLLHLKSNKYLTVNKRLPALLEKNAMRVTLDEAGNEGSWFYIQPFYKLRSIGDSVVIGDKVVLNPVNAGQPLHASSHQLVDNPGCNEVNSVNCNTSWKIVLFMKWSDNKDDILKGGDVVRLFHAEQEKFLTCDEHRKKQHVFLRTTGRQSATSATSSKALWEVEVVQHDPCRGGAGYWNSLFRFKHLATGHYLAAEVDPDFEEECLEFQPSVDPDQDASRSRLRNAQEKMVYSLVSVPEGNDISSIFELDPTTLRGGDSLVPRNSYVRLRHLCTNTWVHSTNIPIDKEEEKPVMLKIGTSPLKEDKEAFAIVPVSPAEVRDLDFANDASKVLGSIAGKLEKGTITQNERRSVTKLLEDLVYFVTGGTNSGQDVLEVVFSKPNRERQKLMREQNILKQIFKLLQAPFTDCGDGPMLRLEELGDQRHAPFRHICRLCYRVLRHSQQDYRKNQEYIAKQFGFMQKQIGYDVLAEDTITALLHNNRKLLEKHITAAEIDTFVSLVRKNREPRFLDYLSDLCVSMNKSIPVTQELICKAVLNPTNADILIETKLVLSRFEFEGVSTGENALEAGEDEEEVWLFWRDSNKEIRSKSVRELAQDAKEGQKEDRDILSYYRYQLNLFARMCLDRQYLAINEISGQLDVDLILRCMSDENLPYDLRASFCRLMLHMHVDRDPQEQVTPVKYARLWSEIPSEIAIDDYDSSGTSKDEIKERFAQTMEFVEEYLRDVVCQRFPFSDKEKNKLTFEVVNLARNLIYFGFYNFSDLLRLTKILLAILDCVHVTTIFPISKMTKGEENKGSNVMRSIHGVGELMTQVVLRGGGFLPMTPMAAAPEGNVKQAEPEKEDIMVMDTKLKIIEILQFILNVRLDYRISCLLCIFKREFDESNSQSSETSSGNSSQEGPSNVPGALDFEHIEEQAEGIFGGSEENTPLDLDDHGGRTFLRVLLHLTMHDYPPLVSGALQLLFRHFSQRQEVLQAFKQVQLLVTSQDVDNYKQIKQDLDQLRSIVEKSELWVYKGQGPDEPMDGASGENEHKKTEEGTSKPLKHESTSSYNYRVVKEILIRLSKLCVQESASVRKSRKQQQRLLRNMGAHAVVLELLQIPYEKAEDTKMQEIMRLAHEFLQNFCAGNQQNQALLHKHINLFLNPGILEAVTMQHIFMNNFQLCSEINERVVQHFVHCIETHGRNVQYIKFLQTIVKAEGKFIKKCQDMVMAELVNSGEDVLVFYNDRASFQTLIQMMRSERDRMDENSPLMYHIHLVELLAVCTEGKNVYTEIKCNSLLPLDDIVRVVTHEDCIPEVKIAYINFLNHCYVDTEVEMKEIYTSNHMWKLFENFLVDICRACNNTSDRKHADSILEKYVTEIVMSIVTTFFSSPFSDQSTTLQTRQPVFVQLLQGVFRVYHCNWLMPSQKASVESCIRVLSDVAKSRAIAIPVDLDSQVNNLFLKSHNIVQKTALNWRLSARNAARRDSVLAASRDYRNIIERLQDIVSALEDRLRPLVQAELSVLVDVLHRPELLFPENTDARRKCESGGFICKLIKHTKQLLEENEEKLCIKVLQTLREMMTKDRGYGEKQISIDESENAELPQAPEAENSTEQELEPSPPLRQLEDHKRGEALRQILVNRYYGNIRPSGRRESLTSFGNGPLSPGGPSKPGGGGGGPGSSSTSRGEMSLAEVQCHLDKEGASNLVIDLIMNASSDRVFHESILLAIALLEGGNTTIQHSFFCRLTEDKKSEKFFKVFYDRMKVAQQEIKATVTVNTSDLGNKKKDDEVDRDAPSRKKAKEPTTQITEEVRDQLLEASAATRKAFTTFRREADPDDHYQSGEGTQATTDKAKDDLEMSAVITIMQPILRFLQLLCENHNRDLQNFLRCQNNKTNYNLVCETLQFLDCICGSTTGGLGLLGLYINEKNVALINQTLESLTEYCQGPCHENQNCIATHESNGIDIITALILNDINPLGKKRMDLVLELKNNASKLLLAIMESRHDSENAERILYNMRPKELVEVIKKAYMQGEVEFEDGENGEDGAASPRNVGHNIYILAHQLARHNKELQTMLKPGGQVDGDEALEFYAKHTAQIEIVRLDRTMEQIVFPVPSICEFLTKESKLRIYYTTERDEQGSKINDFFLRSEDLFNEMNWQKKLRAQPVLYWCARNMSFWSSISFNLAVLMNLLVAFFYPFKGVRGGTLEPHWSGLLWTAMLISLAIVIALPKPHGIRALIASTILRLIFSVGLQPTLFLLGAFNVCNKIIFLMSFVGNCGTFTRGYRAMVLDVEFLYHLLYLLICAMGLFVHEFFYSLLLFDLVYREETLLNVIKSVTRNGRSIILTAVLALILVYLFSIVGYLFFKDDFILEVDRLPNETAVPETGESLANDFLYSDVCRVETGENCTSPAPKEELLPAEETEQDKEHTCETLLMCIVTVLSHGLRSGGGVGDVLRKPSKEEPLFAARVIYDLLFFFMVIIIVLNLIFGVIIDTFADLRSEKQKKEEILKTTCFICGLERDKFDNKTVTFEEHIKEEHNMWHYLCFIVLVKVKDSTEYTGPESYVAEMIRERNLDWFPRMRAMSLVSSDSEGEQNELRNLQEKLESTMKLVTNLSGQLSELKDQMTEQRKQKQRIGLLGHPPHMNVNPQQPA
UniProt P29994: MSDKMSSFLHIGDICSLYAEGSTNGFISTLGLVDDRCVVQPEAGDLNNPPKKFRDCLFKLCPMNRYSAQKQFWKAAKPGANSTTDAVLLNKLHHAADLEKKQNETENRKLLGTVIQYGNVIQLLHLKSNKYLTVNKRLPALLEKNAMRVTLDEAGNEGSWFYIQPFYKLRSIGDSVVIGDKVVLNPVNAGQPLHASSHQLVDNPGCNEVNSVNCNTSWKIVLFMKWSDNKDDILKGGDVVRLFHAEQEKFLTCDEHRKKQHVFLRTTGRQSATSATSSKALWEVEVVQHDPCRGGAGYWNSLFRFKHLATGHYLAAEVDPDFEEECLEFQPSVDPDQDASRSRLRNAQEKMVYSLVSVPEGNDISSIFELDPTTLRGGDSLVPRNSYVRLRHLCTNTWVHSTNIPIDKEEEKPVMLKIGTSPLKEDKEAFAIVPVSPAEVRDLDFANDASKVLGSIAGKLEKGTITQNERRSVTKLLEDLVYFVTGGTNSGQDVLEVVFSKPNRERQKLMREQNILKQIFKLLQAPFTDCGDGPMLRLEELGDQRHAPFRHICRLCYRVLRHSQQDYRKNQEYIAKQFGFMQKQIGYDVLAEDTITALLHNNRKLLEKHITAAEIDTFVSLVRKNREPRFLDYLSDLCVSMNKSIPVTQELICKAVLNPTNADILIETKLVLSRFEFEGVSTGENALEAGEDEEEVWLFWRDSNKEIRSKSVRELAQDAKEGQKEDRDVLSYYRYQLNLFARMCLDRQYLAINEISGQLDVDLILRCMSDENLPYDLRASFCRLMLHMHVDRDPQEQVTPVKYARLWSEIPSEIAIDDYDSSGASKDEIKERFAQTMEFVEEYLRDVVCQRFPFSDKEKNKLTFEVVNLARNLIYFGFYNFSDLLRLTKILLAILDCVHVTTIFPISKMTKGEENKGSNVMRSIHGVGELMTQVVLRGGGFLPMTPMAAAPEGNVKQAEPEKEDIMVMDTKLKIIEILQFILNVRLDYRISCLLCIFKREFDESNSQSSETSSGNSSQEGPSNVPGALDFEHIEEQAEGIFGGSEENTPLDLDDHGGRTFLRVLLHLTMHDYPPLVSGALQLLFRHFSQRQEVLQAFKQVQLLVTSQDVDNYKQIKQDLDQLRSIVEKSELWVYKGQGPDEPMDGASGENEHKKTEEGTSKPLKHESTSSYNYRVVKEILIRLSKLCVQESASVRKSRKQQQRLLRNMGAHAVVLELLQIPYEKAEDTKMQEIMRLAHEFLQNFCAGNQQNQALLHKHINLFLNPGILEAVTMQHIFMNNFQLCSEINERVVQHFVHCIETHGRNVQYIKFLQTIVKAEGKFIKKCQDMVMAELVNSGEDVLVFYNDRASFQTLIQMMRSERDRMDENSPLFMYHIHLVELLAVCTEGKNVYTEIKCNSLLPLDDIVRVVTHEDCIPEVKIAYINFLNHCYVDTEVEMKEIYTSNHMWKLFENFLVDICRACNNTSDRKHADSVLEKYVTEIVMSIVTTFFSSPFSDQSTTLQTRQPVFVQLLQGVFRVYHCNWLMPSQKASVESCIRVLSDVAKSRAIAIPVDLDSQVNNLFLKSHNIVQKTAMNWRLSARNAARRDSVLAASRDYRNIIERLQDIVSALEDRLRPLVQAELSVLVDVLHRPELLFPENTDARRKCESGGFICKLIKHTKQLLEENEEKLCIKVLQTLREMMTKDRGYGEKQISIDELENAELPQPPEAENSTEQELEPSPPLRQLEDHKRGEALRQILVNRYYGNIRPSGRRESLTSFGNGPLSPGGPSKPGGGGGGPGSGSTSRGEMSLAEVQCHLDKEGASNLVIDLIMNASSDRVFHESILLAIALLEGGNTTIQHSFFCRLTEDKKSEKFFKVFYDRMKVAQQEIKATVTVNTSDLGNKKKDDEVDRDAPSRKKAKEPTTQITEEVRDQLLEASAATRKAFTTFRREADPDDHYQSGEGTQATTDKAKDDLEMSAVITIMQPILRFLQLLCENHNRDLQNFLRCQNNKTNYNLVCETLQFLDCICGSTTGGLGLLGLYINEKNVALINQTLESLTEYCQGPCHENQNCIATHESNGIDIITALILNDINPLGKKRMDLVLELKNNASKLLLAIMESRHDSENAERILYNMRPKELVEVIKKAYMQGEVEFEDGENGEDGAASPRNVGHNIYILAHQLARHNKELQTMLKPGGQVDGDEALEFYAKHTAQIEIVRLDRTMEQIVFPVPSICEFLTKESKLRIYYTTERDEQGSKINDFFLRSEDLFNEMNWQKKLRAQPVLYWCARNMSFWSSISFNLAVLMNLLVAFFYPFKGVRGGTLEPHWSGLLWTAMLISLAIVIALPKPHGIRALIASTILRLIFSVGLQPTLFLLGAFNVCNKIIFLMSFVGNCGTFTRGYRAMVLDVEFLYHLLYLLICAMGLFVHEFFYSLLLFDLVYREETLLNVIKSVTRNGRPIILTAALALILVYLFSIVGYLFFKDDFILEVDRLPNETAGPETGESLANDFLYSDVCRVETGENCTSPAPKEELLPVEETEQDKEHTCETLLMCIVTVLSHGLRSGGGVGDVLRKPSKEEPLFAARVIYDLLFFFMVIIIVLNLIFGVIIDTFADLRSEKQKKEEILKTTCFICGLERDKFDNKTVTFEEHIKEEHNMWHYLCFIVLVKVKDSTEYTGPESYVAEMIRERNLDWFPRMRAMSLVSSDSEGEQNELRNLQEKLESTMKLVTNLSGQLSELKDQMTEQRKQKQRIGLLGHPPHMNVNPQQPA

How the values were obtained:
[1] = target: InsP3R1 in primary mouse hepatocytes (mouse) (UniProt P11881); test: co-immunoprecipitation, primary hepatocytes, with or without glucagon (100 nM; 15 minutes)
[2] = target: InsP3R1 in primary mouse hepatocytes (mouse) (UniProt P11881); test: co-immunoprecipitation in primary hepatocytes (FIG. 35F)
HA-tagged InsP3R1 (rat) [3] = target: HA-tagged InsP3R1 (rat) (UniProt P29994); test: co-immunoprecipitation, HA IP and Flag immunoblot, HEK293T cells
HA-tagged InsP3R1 (rat) [4] = target: HA-tagged InsP3R1 (rat) (UniProt P29994); test: co-immunoprecipitation of tagged proteins in HEK293T cells (FIGS. 45B-D)

| Binder | binding [1] | binding [2] | binding (HA-tagged InsP3R1 (rat) [3]) | binding (HA-tagged InsP3R1 (rat) [4]) |
| --- | --- | --- | --- | --- |
| CRTC2 in primary mouse hepatocytes (protein, UniProt Q3U182 2-692, looked up) ATSGANGPGSATASASNPRKFSEKIALQKQRQAEETAAFEEVMMDIGSTRLQAQKLRLAYTRSSHYGGSLPNVNQIGCGLAEFQSPLHSPLDSSRSTRHHGLVERVQRDARRMVSPLRRYPRHIDSSPYSPAYLSPPPESGWRRMMPWGNLPAEKGQLFRLPSALNRTSSDSALHTSVMNPNPQDTYPGPTPPSVLPSRRGGGFLDGEMDAKVPAIEENVVDDKHLLKPWDAKKLSSSSSRPRSCEVPGINIFPSPDQPANVPVLPPAMNTGGSLPDLTNLHFPPPLPTPLDPEETVYPSLSGGNSTTNLTHTMTHLGISGGLGLGPSYDVPGLHSPLSHPSLQSSLSNPNLQASLSSPQPQLQGSHSHPSLPASSLAHHALPTTSLGHPSLSAPALSSSSSSSSTSSPVLSAPPYPASTPGASPRHRRVPLSPLSLPAGPADARRSQQQLPKQFSPTMSPTLSSITQGVPLDTSKLPTDQRLPPYPYSPPSLVIPTHPPTPKSLQQLPSQACLVQPSGGQPPGRQPHYGALYPPGSSGHGQQPYHRPINDFSLGNLEQFNMESPSTSLVLDPPAFSEGPGFLGSEGSMSGPQDPHVLNHQNLTHCSRHGSGPNIILTGDSSPGFSKEIAAALAGVPGFEVSASGLELGLGLEDELRMEPLGLEGLTMLSDPCALLPDPAVEDSFRSDRLQ | binds | binds | – | – |
| Flag-tagged CRTC2 (wild-type) (protein, mouse, UniProt Q3U182 1-692, looked up) MATSGANGPGSATASASNPRKFSEKIALQKQRQAEETAAFEEVMMDIGSTRLQAQKLRLAYTRSSHYGGSLPNVNQIGCGLAEFQSPLHSPLDSSRSTRHHGLVERVQRDARRMVSPLRRYPRHIDSSPYSPAYLSPPPESGWRRMMPWGNLPAEKGQLFRLPSALNRTSSDSALHTSVMNPNPQDTYPGPTPPSVLPSRRGGGFLDGEMDAKVPAIEENVVDDKHLLKPWDAKKLSSSSSRPRSCEVPGINIFPSPDQPANVPVLPPAMNTGGSLPDLTNLHFPPPLPTPLDPEETVYPSLSGGNSTTNLTHTMTHLGISGGLGLGPSYDVPGLHSPLSHPSLQSSLSNPNLQASLSSPQPQLQGSHSHPSLPASSLAHHALPTTSLGHPSLSAPALSSSSSSSSTSSPVLSAPPYPASTPGASPRHRRVPLSPLSLPAGPADARRSQQQLPKQFSPTMSPTLSSITQGVPLDTSKLPTDQRLPPYPYSPPSLVIPTHPPTPKSLQQLPSQACLVQPSGGQPPGRQPHYGALYPPGSSGHGQQPYHRPINDFSLGNLEQFNMESPSTSLVLDPPAFSEGPGFLGSEGSMSGPQDPHVLNHQNLTHCSRHGSGPNIILTGDSSPGFSKEIAAALAGVPGFEVSASGLELGLGLEDELRMEPLGLEGLTMLSDPCALLPDPAVEDSFRSDRLQ | – | – | binds | binds |
